# Measured values: patent publication US9133435B2, “Method for induction/differentiation into photoreceptor cell” (RIKEN, priority 2007, dated 2015)
# For at least one compound, name, drawing or mass did not settle the structure.
# Tested on: purified ES-derived Rx+ cells
# Assay: Differentiation of ES-derived photoreceptor precursors into opsin+ cone and rhodopsin+ rod photoreceptors
# Assay type: cell-based, mouse
# Settings: after FACS purification and DAPT; acidic FGF 50 ng/ml, basic FGF 10 ng/ml, taurine 1 mM, shh 3 nM, RA 500 nM; from day 16, day 28
# Description: For FACS (see below), until day 9, cell aggregates were incubated in a differentiation medium under suspension culture conditions. After FACS, 1−2×10^4 sorted cells were re-suspended in a differentiation medium containing 10% FCS, and to produce re-aggregated pellets, the suspension was centrifuged at 800 g for 10 minutes. After cultivation at 37° C. for 1 hour, three to five re-aggregated pellets per cm^2 were replated on a poly-D-lysine/laminin/fibronectin-coated culture slides with a differentiation medium supplemented with 10% FCS. […]
# The immunoreactivity of each antibody was confirmed by immunostaining an appropriate retinal tissue as a positive control under the same conditions. Total cell counts were determined by counting nuclei stained by TOTO-3 or DAPI (Molecular Probes). Positive cells were counted in optical slice images prepared by confocal (Leica) or ApoTome (Zeiss) microscopy.
# For statistical analyses, at least 2500 cells were examined in each experiment, which was performed at least 3 times. […] The statistical significance of differences was determined by one-way analysis of variance (ANOVA) followed by Tukey's test for the experiments in FIG. 1f, by one-way ANOVA followed by Dunnett's multiple comparison test for the experiment in FIG. 3b, by two-way ANOVA followed by Bonferroni's test for the experiment in FIG. 1j-l. […]
smiles,measurement,value
CC1=C(/C=C/C(C)=C/C=C/C(C)=C/C(=O)O)C(C)(C)CCC1 [retinoic acid],"rod differentiation, factor added individually",promoted rod differentiation
